Test: In vitro stability in human plasma
Details: 36° C., 5 μg/ml, 60 min

Compound	Plasma degradation
CC(C)[N+]1(C)[C@@H]2CC[C@H]1C[C@@H](OC(=O)C(CO)c1ccccc1)C2 (some centres unmarked) [ipratropium, [8-methyl-8-(1-methylethyl)-8-azoniabicyclo[3.2.1]oct-3-yl]3-hydroxy-2-phenyl-propanoate]	0%
C[N+]1(C)CCC(OC(=O)C(O)(c2ccccc2)C2CCCC2)C1 (centres unmarked) [glycolpyrrolate, (1,1-dimethyl-2,3,4,5-tetrahydropyrrol-3-yl) 2-cyclopentyl-2-hydroxy-2-phenyl-acetate]	9%

— patent US20110243924A1, “NOVEL METHODS” (priority 2007, published 2011)
